Reference: PubChem BioAssay AID504834 (National Center for Advancing Translational Sciences (NCATS), 2011)
Where “and” joins values, the source holds several entries; their conditions need not be identical. Identical values can stand only once. Hit rate of the full screen: of about 320,000 compounds, about 22,000 (6.9%) were called active. This list was built around the results that the source calls inconclusive (neither active nor inactive); the mix of calls is not that of the screen. Calls come from the whole dose curve; as a rule, active = well fitted inhibition curve with a large enough effect; inconclusive = small, poorly fitted or top-dose-only effect, or another doubt; inactive = no such curve, though single readings can be large or run the other way. Where the call is inconclusive, the potency comes from a doubtful curve fit.

Test: Primary qHTS for delayed death inhibitors of the malarial parasite plastid, 96 hour incubation
Conditions: P. falciparum luciferase reporter growth; series mostly up to 28.7 µM
How it was run: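 Two parasite generations (96 h, 37 C, 5% CO2) of compound exposure in infected erythrocytes (0.05% parasitemia, 2% hematocrit). Luciferase-reporter P. falciparum; decreased luminescence indicates inhibited growth, aimed at apicoplast-acting delayed death.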
Potency is the fitted concentration of half-maximal effect.

SMILES	Potency
COc1ccc(/C=C\C(=O)CC(O)(c2ccccc2)C(F)(F)F)cc1 (stereo not given)	inconclusive: 11.7 µM [inhibitor, single point]
O=C(Nc1ccc(Cl)cc1)Nc1ccc(-c2cnco2)cc1	inconclusive: 3.29 µM [inhibitor, partial curve, poor fit]
O=C(c1ccccc1)c1c(O)nc(-c2ccccc2)n(-c2ccccc2)c1=O	inactive
Nc1ncnc2oc(-c3ccco3)c(-c3ccco3)c12	inconclusive: 11.7 µM [inhibitor, single point]
Cc1[nH]c2ccccc2c1C(=O)COC(=O)c1c(-c2c(F)cccc2Cl)noc1C	inconclusive: 10.4 µM [inhibitor, single point]
c1ccc2nc(N3CCOCC3)cnc2c1	inconclusive: 18.5 µM [inhibitor, single point]
O=c1c2cn[nH]c2[nH]c(=S)n1-c1ccccc1	inactive
Cc1ccc(N2CC(C(=O)Nc3c4c(nn3C(C)(C)C)CS(=O)(=O)C4)CC2=O)cc1 (stereo not given)	inactive
CCS(=O)(=O)N1Cc2ccccc2CC1C(=O)Nc1ccc(F)cc1 (stereo not given)	inactive
Cc1ccc(C)c(N2CCN(S(=O)(=O)c3ccc(-c4ccc(=O)[nH]n4)o3)CC2)c1	inconclusive: 18.5 µM [inhibitor, single point]
CC(=O)N1CCN(c2nc3ccc(Br)cc3s2)CC1	inactive
COc1ccc(-n2c(C)cc(=O)[nH]c2=O)cc1	inconclusive: 1.47 µM [inhibitor, single point]
CCOc1cc(N2CCOCC2)c(OCC)cc1NC(=O)c1ccc(C)s1	inconclusive: 18.5 µM [inhibitor, single point]
Nc1c(C(=O)N/N=C/c2ccc([N+](=O)[O-])cc2)sc2nnc(-c3ccccc3)c(-c3ccccc3)c12	inactive
CC(C)n1nc(C(=O)NNC(=O)c2ccc(OC(F)F)cc2)c2ccccc2c1=O	inconclusive: 5.86 µM [inhibitor, partial curve, poor fit]
CC(=O)Oc1ccc(-c2ccc(C(=O)Nc3cccc(S(=O)(=O)N4CCOCC4)c3)cc2)cc1	inconclusive: 5.22 µM [inhibitor, partial curve]
COc1cc2c(cc1OC)C(C)N(C(=O)CCNC(=O)c1ccccc1)CC2 (stereo not given)	inconclusive: 10.4 µM [inhibitor, single point]
CCCCCC(O)(CCN1CCCCC1)c1ccccc1 (stereo not given)	inactive
O=C(CCc1nnc2ccc(NCc3ccco3)nn12)N1CCCCC1	inactive
O=C(c1cccnc1)N1CCN(S(=O)(=O)c2ccc(F)cc2)CC1	inconclusive: 18.5 µM [inhibitor, single point]
COc1cc(NS(=O)(=O)c2ccc(NS(=O)(=O)c3ccc(NC(C)=O)cc3)cc2)nc(OC)n1	inactive
O=C(NC(Nc1nc2ccc([N+](=O)[O-])cc2s1)(C(F)(F)F)C(F)(F)F)c1ccccc1Cl	active: 0.928 µM
CCc1ccc2[nH]c(O)c(N=Nc3nc(-c4ccccc4)cs3)c2c1	inactive
Cc1ccc(S(=O)(=O)N2CCN(C(=O)CSc3ccc(Cl)cc3)CC2)cc1	inconclusive: 1.65 µM [inhibitor, full curve, poor fit]
Cc1ccc(-c2nc(Nc3ccc(N4CCOCC4)cc3)c3ccccc3n2)cc1	inconclusive: 8.28 µM [inhibitor, single point]

SMILES	Potency
CCOCCCNC(=O)C(c1ccc(Cl)cc1)N(Cc1cccs1)C(=O)CNC(C)=O (stereo not given)	inactive
COc1ccccc1CNC(=O)C1=C(C)C(=O)OC12CCC(C)CC2 (stereo not given)	inconclusive: 11.7 µM [inhibitor, single point]
Cn1c(=O)c2c(SCc3cccc(C(F)(F)F)c3)nc(-c3ccco3)nc2n(C)c1=O	inconclusive: 4.15 µM [inhibitor, single point]
COc1cccc(-c2nc(CS(=O)(=O)CC(=O)NCCC(C)C)c(C)o2)c1	inactive
OCCN(Cc1ccccc1)Cc1nc(CC2CC2)no1	active: 1.65 µM
Cc1ccc(Cl)cc1N1CCN(C(=O)c2ccc(CN3CCOCC3)cc2)CC1	inactive
O=C(NCc1ccccc1)N(Cc1cc2cc3c(cc2[nH]c1=O)OCO3)CC1CCCO1 (stereo not given)	inconclusive: 0.0828 µM [inhibitor, full curve, poor fit]
O=C(CCCc1ccccc1)Nc1ccc2c(c1)OCCO2	inactive
Cc1cc(C)c2c(-n3cccc3)c(C(=O)NNS(=O)(=O)c3ccc(Br)cc3)sc2n1	inconclusive: 0.0828 µM [inhibitor, full curve, poor fit]
COc1ccc(CCNc2nc3ccccc3n3nnnc23)cc1OC	inactive
CCOC(=O)CNC(=O)CSc1nc(-c2ccc(C)cc2)ns1	inactive
O=C(O)CN1C(=O)Nc2ccc(Br)cc2C1c1ccccc1 (stereo not given)	inactive
O=C(CSc1nnc(CNC(=O)c2ccccc2F)o1)NCc1ccco1	inconclusive: 18.5 µM [inhibitor, single point]
CS(=O)(=O)N1CCN(c2ncccn2)CC1	inconclusive: 11.7 µM [inhibitor, partial curve]
COc1ccc(-c2cc3ccc(OC)cc3cn2)cc1	inactive
COc1ccc(S(=O)(=O)N2CCCCCC2)cc1C(=O)N1CCN(c2ccccc2C)CC1	active: 5.86 µM
c1ccc(-c2nc(N3CCCCCC3)nc(-n3ccnc3)n2)cc1	inactive
C/C(=N/NC(=O)c1ccc(C)s1)c1cccnc1	inactive
O=C(O)C1C2C=CC3(CN(c4cccc(C(F)(F)F)c4)C(=O)C13)O2 (stereo not given)	active: 10.4 µM
CCCN(CC1CC1)C(=S)NC(=O)c1ccc(S(=O)(=O)N2CCOCC2)cc1	inconclusive: 10.4 µM [inhibitor, single point]
COC(=O)C1=C(c2ccc(F)cc2OCc2ccccc2)C[C@@H]2CC[C@H]1N2C(=O)NCC1CC1	inconclusive: 4.65 µM [inhibitor, partial curve]
Cc1ccc(-c2ccnc(=S)[nH]2)cc1	inconclusive: 18.5 µM [inhibitor, single point]
Cc1ccc(Cc2cnc(N3C(=N)SC(C)C3=O)s2)cc1 (stereo not given)	inconclusive: 0.37 µM [inhibitor, full curve, poor fit]
O=C(NCc1ccc(N2CCCC2=O)cc1)C1CCC(=O)N(Cc2ccccc2F)C1 (stereo not given)	inactive
CCc1ccc(C(=O)NNC(=O)c2ccc3c(=O)n4c(nc3c2)CCC4)cc1	inactive

SMILES	Potency
CCCc1cc(C(=O)Nc2sc3c(c2C(=O)OCC)CCCC3)no1	inactive
O=C(c1ccco1)N1N=C(c2ccc3nccnc3c2)CC1c1ccccc1 (stereo not given)	inconclusive: 3.7 µM [inhibitor, full curve]
CC(Sc1nnc(-c2ccccc2F)n1C1CC1)C(=O)NC(N)=O (stereo not given)	inactive
COc1ccc(Cc2n[nH]c(=S)n(N)c2=O)cc1	inconclusive: 14.7 µM [inhibitor, single point]
C/C(Cl)=C\Cn1c(N2CCCCCC2)nc2c1c(=O)n(C)c(=O)n2C	inconclusive: 11.7 µM [inhibitor, single point]
O=C1Nc2ccc(S(=O)(=O)NCc3ccccn3)c3cccc1c23	active: 10.4 µM
COc1ccc2oc(C(=O)OCC(=O)N(C)C3CCS(=O)(=O)C3)c(C)c2c1 (stereo not given)	inactive
CC(NC(=O)CCC(=O)N1CCCCCC1)c1ccccc1 (stereo not given)	inactive
CCCn1c(-c2cccs2)nc2c1c(=O)[nH]c(=O)n2Cc1ccccc1	inconclusive: 18.5 µM [inhibitor, single point]
Nn1c(SCC(=O)N2CCN(S(=O)(=O)c3ccccc3)CC2)nnc1-c1cccs1	inactive
S=C(NC1CCCC1)N1CCN(c2ccc(Cl)cc2)CC1	inactive
CN1CCN(c2c(F)cc3c(=O)c(C(=O)O)cn4c3c2SCC4)CC1	active: 6.01 µM and active: 5.22 µM
S=C(Nc1ccccc1)Nc1ccc(OCc2ccc(Cl)cc2Cl)cc1	inconclusive: 4.15 µM [inhibitor, partial curve]
Cc1ccc(NC(=S)N2CCC(c3nc4ccccc4s3)CC2)cc1	inactive
COc1cccc(NC(=O)CSc2nc3c([nH]c4ccccc43)c(=O)n2C)c1	inconclusive: 10.4 µM [inhibitor, partial curve, poor fit]
CN(CCCNC(=O)CCC(=O)N1CCOc2ccc(Cl)cc21)Cc1ccccc1	active: 14.7 µM
O=C(Nc1ccccc1Br)c1ccc(N2CCCC2=O)cc1	inactive
COc1ccc(CNS(=O)(=O)c2ccc3c(c2)CC(C)N3C(=O)C2CC2)cc1 (stereo not given)	inconclusive: 14.7 µM [inhibitor, single point]
O=C(O)c1ccc(NC(=O)C(c2ccccc2)c2ccccc2)cc1	inconclusive: 18.5 µM [inhibitor, single point]
O=C(N/N=C/C(Cl)=C/c1ccc([N+](=O)[O-])cc1)C(=O)Nc1ccc(C(=O)O)cc1	inconclusive: 8.28 µM [inhibitor, partial curve, poor fit]
CCOc1ccc(Cc2nc(-c3nonc3N)no2)cc1OCC	active: 1.47 µM
CC1CCCC(C)N1C(=C(Cl)Cl)C(=C1SCCS1)[N+](=O)[O-] (stereo not given)	inconclusive: 10.4 µM [inhibitor, single point]
O=C(CSc1nccn1-c1cccc(Cl)c1)Nc1ccc2c(c1)OCCO2	inconclusive: 10.4 µM [inhibitor, single point]
Cn1c(COc2cccc3cccnc23)nnc1SCC(=O)O	active: 10.4 µM
CCC1CCC(N2CCN(c3ccc(F)cc3)CC2)CC1 (stereo not given)	inconclusive: 18.5 µM [inhibitor, single point]
